Results are given in words; binding and its absence hold for the method and conditions named. Binding calls can cover weak binding; strength is not graded here. Tags and fused reporters may be left off the sequences shown.
How the values were obtained:
[1] = biological target: T1, PUF repeats of FBF-2 (a.a. 121-632) fused to LexA DNA binding domain (C. elegans) (UniProt Q09312); experiment: two-hybrid; SYGL-1 or LST-1 fused to Gal4 AD, PUF repeats of FBF-1 or FBF-2 fused to LexA BD; L40-ura yeast; growth on SD -Leu -Trp -His with 50 mM 3-AT, 4 days at 30°C (HIS3 reporter)
T1 sequence: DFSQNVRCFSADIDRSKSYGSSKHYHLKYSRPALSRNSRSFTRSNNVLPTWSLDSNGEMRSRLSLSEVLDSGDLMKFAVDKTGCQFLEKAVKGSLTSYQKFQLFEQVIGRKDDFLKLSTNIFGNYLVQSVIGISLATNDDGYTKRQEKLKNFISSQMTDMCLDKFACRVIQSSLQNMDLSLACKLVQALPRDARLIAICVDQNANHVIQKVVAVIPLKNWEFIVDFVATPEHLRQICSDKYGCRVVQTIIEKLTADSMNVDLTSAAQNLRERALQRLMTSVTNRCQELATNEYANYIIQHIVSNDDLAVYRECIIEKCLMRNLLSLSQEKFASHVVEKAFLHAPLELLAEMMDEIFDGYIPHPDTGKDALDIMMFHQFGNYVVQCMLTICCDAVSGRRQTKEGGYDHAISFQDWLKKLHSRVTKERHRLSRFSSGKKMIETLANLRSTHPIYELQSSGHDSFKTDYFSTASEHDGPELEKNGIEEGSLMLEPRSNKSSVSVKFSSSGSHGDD

[2] = biological target: T2, PUF repeats of FBF-1 (a.a. 121-614) fused to LexA DNA binding domain (C. elegans) (UniProt Q9N5M6); experiment: as above
T2 sequence: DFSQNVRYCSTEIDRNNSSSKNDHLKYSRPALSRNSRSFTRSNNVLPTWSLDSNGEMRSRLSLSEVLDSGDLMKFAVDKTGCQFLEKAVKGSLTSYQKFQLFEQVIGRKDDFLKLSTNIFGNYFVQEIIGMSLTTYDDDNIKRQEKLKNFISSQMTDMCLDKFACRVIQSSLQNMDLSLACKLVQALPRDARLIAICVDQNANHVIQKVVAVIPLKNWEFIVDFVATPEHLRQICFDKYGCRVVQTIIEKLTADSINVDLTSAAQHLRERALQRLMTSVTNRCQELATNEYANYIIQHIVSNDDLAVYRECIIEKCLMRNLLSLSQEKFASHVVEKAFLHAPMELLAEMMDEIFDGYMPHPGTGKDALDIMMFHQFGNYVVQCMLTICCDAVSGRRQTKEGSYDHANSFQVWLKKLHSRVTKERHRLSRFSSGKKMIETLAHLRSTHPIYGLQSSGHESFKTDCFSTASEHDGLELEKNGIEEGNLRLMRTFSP

SYGL-1 full length (a.a. 1-206) fused to Gal4 activation domain (from UniProt O45868)
binding [1]: binds
binding [2]: binds

From paper PMC5741267
